Laboratory results as given in the supplement of paper PMC4604168 (melanoma cell lines).
Some of the results follow. Single values are uncertain, as repeats are few or missing.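 The apoptosis fraction was the count of cleaved-PARP antibody-stained nuclei relative to all DNA-stained nuclei, imaged in 1,536-well plates. Screening doses were set so most cells survived, and baseline and induced cleaved-PARP levels vary greatly across cell lines.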

Assays:
Assay in all cases: cleaved PARP positive nuclei fraction relative to DMSO control; melanoma cells; higher = more apoptosis
Conditions in all cases: library dose: low library concentration; 72 h
WM115 = tested on: WM115
WM1716 = tested on: WM1716
WM1745 = tested on: WM1745
WM3526 = tested on: WM3526
WM3619 = tested on: WM3619
WM451Lu = tested on: WM451Lu

SMILES	cleaved PARP positive nuclei fraction (WM115) [%]	cleaved PARP positive nuclei fraction (WM1716) [%]	cleaved PARP positive nuclei fraction (WM1745) [%]	cleaved PARP positive nuclei fraction (WM3526) [%]	cleaved PARP positive nuclei fraction (WM3619) [%]	cleaved PARP positive nuclei fraction (WM451Lu) [%]
CCCCCCCCc1ccc(CCC(N)(CO)CO)cc1 [fingolimod] + CS(=O)(=O)CCNCc1ccc(-c2ccc3ncnc(Nc4ccc(OCc5cccc(F)c5)c(Cl)c4)c3c2)o1 [lapatinib] (first compound 2 µM, partner dose 0.8 µM)	96.5	74.6	112	46.4	89.4	125
CN(c1ncccc1CNc1nc(Nc2ccc3c(c2)CC(=O)N3)ncc1C(F)(F)F)S(C)(=O)=O + Clc1ccc(Nc2nnc(Cc3ccncc3)c3ccccc23)cc1 [vatalanib] (first compound 0.08 µM, partner dose 2 µM)	182	73.8	103	86.4	113	194
CCN(CC)CCNC(=O)c1c(C)[nH]c(/C=C2\C(=O)Nc3ccc(F)cc32)c1C [sunitinib] + OCc1c[nH]c2ccccc12 [Indole-3-carbinol] (first compound 0.4 µM, partner dose 0.8 µM)	137	58.8	132	314	68	58.1
COc1ccc(C2=N[C@@H](c3ccc(Cl)cc3)[C@@H](c3ccc(Cl)cc3)N2C(=O)N2CCNC(=O)C2)c(OC(C)C)c1 [Nutlin-3] + NCC(=O)Nc1ccc(-n2nc(C(F)(F)F)cc2-c2ccc3c(ccc4ccccc43)c2)cc1 [OSU03012] (first compound 0.1 µM, partner dose 1 µM)	110	82.2	193	54.5	85.8	218
CCCCCCCCc1ccc(CCC(N)(CO)CO)cc1 [fingolimod] + NC(=O)Nc1cc(-c2cccc(F)c2)sc1C(=O)N[C@H]1CCCNC1 [AZD7762] (first compound 2 µM, partner dose 0.02 µM)	59.1	314	138	77.9	246	40.7
C[C@]1(O)C[C@@H](c2nc(-c3ccc4ccc(-c5ccccc5)nc4c3)c3c(N)nccn32)C1 + OCCn1cc(-c2cnc3nnn(Cc4ccc5ncccc5c4)c3n2)cn1 [PF04217903] (first compound 0.4 µM, partner dose 1 µM)	137	145	124	43.4	145	31.7
COc1ccc(C2=N[C@@H](c3ccc(Cl)cc3)[C@@H](c3ccc(Cl)cc3)N2C(=O)N2CCNC(=O)C2)c(OC(C)C)c1 [Nutlin-3] + CC(=O)c1c(C)c2cnc(Nc3ccc(N4CCNCC4)cn3)nc2n(C2CCCC2)c1=O [palbociclib] (first compound 0.1 µM, partner dose 0.04 µM)	88.3	122	130	151	126	120
COc1ccc(C2=N[C@@H](c3ccc(Cl)cc3)[C@@H](c3ccc(Cl)cc3)N2C(=O)N2CCNC(=O)C2)c(OC(C)C)c1 [Nutlin-3] + CNC(=O)c1cc(Oc2ccc(NC(=O)Nc3ccc(Cl)c(C(F)(F)F)c3)cc2)ccn1 [sorafenib] (first compound 0.1 µM, partner dose 0.4 µM)	81.2	58.8	105	249	78.8	173
COc1ccc(C2=N[C@@H](c3ccc(Cl)cc3)[C@@H](c3ccc(Cl)cc3)N2C(=O)N2CCNC(=O)C2)c(OC(C)C)c1 [Nutlin-3] + CCN(CC)CCCCNc1ncc2cc(-c3cc(OC)cc(OC)c3)c(NC(=O)NC(C)(C)C)nc2n1 [PD173074] (first compound 0.1 µM, partner dose 0.1 µM)	87.9	57	195	72.5	106	155
C[C@]1(O)C[C@@H](c2nc(-c3ccc4ccc(-c5ccccc5)nc4c3)c3c(N)nccn32)C1 + CO[C@H]1C[C@@H]2CC[C@@H](C)[C@@](O)(O2)C(=O)C(=O)N2CCCC[C@H]2C(=O)O[C@H]([C@H](C)C[C@@H]2CC[C@@H](OCCO)[C@H](OC)C2)CC(=O)[C@H](C)/C=C(\C)[C@@H](O)[C@@H](OC)C(=O)[C@H](C)C[C@H](C)/C=C/C=C/C=C/1C [everolimus] (first compound 0.4 µM, partner dose 0.02 µM)	107	87.5	137	278	190	120
NC(=O)c1ccc(N(C(N)=O)c2c(F)cccc2F)nc1-c1ccc(F)cc1F + O=S(=O)(c1ccccc1)N(CC(F)(F)F)c1ccc(C(O)(C(F)(F)F)C(F)(F)F)cc1 [T0901317] (first compound 0.4 µM, partner dose 1.4 µM)	29.4	53.7	112	90.2	89.1	46.1
CC(=O)O[C@@]12CO[C@@H]1C[C@H](O)[C@@]1(C)C(=O)[C@H](O)C3=C(C)[C@@H](OC(=O)[C@H](O)[C@@H](NC(=O)OC(C)(C)C)c4ccccc4)C[C@@](O)([C@@H](OC(=O)c4ccccc4)[C@H]21)C3(C)C [Docetaxel] + C=CCn1c(=O)c2cnc(Nc3ccc(N4CCN(C)CC4)cc3)nc2n1-c1cccc(C(C)(C)O)n1 [MK1775] (first compound 0.0001 µM, partner dose 0.02 µM)	560	1010	267	135	146	104

Record cards, as listed above:
COc1ccc(C2=N[C@@H](c3ccc(Cl)cc3)[C@@H](c3ccc(Cl)cc3)N2C(=O)N2CCNC(=O)C2)c(OC(C)C)c1 [Nutlin-3] + CC(=O)c1c(C)c2cnc(Nc3ccc(N4CCNCC4)cn3)nc2n(C2CCCC2)c1=O [palbociclib] (first compound 0.1 µM, partner dose 0.04 µM) in the list: cleaved PARP positive nuclei fraction (WM115) [%]: 88.3; cleaved PARP positive nuclei fraction (WM1716) [%]: 122; cleaved PARP positive nuclei fraction (WM1745) [%]: 130; cleaved PARP positive nuclei fraction (WM3526) [%]: 151; cleaved PARP positive nuclei fraction (WM3619) [%]: 126; cleaved PARP positive nuclei fraction (WM451Lu) [%]: 120
NC(=O)c1ccc(N(C(N)=O)c2c(F)cccc2F)nc1-c1ccc(F)cc1F + O=S(=O)(c1ccccc1)N(CC(F)(F)F)c1ccc(C(O)(C(F)(F)F)C(F)(F)F)cc1 [T0901317] (first compound 0.4 µM, partner dose 1.4 µM) in the list: cleaved PARP positive nuclei fraction (WM115) [%]: 29.4; cleaved PARP positive nuclei fraction (WM1716) [%]: 53.7; cleaved PARP positive nuclei fraction (WM1745) [%]: 112; cleaved PARP positive nuclei fraction (WM3526) [%]: 90.2; cleaved PARP positive nuclei fraction (WM3619) [%]: 89.1; cleaved PARP positive nuclei fraction (WM451Lu) [%]: 46.1
